## Assay results

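Genome-wide siRNA knockdown in TC32 Ewing sarcoma cells, comparing luciferase light from an NR0B1-promoter reporter with a CMV-promoter reporter 48 hours after transfection. Each siRNA was applied at 20 nM. A z-score of the log NR0B1-over-CMV signal, less the median of siRNAs with the same seed; more negative means a stronger specific loss of the NR0B1 reporter.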

This is part of the screen; most of the strongest results are not listed here. Sequences are the guide (antisense) strand, without overhang.

strand,gene,seed-corrected z-score
AAGUAGGUCAUGUUCCUCC,MFSD12,-0.177
UACGAAAUAGGCUCCGUGC,TAF6L,0.2512
AAGGUAAUAAUGAGGUAUG,DLAT,-0.6481
UAGGUAUACACCAUAGUCC,PRDX4,-0.3465
ACAUGUUCCACCAAGGCCU,PSAP,-0.526
UAAGGUUAGAUUCGUAUGC,ANO6,-0.156
AUAGGGAUUUACAGGAUCC,MEST,-0.07139
UUCCAUCUUACUACGGAAC,GCAT,0.05022
UGUAGCAUUAGGGACUCCU,TRIM74,-0.1114
UGUUGUCGAAAGAAGAUUU,RAB37,-1.185
AUAAUUGUAACCAUACAGG,TVP23C,1.825
ACACUUGUACUUUUUAACC,FAM3D,-0.7834
UCCUGGGCUCACUUGAUUC,PILRA,0.3437
UUCAGGCCCAAACCAACCC,SOX12,-0.6347
UUCAUACCGAGUGCGGUUG,PROCR,-0.2826
UCCAGAAUUGCGGUUGUGG,WNT10B,0.4371
UGGUUUCCGACAUAUAGUC,FRMD6,-0.2263
UUAAAACCCAUCAUAUUCC,CXCL3,0.7239
UCUGAGACUCCUAAUACGC,DTX3L,0.0493
AAAAUGCACAUCGCACUUG,BAGE4,0.03217
UUCUGUAAUGUGACUCACC,LOC401286,-0.8875
UCAUGUACCAGUCCGAGGU,SLC38A3,0.3843
UAUAGUAGAGUUUCAGACC,SHPRH,0.4364
UAGUAGUUCAGGAAGCCUU,IDUA,1.01
AGAGCAGCCGGUGUAAUGG,AQP2,-0.06405
UGAAGAGCCUUUCUAGUGA,C8orf4,-0.1543
UCCUCUACAGACACGAUGG,RNF123,-0.09408
UAUUCUUUGAGAUGAGGUC,RGS21,-1.19
UGUAGAUAAACUGUCCUGC,TESPA1,1.317
AGAAUAAUGAGUGCUACGG,SLC2A13,0.2738
UUUUCGGUAAUGGAGAUUG,OVOS2,0.01658
UUCAUUGUCAAGGAAUUCG,ESYT3,0.1533
UUUCCGAAGACAUGGGUCC,HBEGF,-0.7046
AGGAUGUUGAUUUCCAUGC,CCNB3,1.848
UGCAAUGAGACUGUCAUCC,GON4L,-0.8957
UGACAUUUGAGUAUGCCUG,ARHGAP22,0.01385
UAGCGAAAUAUUGAGAUCU,MIR3945HG,0.2526
UACGGUAUACAGUCCAUCC,INTS7,-0.2103
UAGGUAUUGUGCAUAAAGC,ABHD17C,0.93
UGAGAUACCAGCUUCUCUC,MYO18B,-1.46
AACAGAGUAAGGACACUUC,GLE1,0.5892
AAAGCGAAAGUCUCCAGUG,ZNF813,0.2296
UGAAUAUACCGGUCUGUGG,MTA2,-0.4788
AAAGUUCUCGGCUUGCUUG,SIAH2,-0.1129
UGUGCGUCCACAUGGAUUC,HMCN2,0.532
AUAGCCUCGAACCACAUCG,B9D1,-0.5915
UGUAUGGAAGUGAUAUUCC,NTRK3,-0.304
UUAAAAAGUCUCACAAUCC,TPRX1,0.4183
UUCCUAACAUGUUUAGAAG,SNX24,-0.1546
UAAACUAUUUAUCAGCUUG,TAGLN3,0.1698
UAAGUGACUAGUUAAAGUG,MCIDAS,-1.294
UUACUUUGGACAUGACCGG,HDAC1,-1.495
AAUUUGCCCAUUGUGAACC,ZCCHC9,-0.2718
UUCCUCAUAAAAUCCAUGG,ECHDC1,-0.1276
UUAGGUGAUCUUUGGAUCU,NRSN1,-0.09901
AGCUCUUUCCCGUUGGUUC,RPL21P68,0.2849
UUGGAGAUGACGAAGAGGC,MS4A10,0.9669
AGAAGGAACAGUAGCCUUG,LOC100288914,1.21
UCAAUCAUUACACUACGGC,ILK,0.7907

Source: PubChem BioAssay AID1159506 (NCATS, 2015).